Assay results taken from PubChem BioAssay AID651640 (Broad Institute, 2012).
Out of some 350,000 compounds screened, about 6,000 (1.7%) were called active. Inconclusive results, whose numbers are uncertain, are shown with a selection of clear calls. Rule as the data show it: active = CPE inhibition above about 20% (passing the limit was not always enough); inconclusive = no clear call, values can overlap the other calls; tested in BHK-21 cells. More than one record can exist for a structure, and the calls need not agree.

Assay: protection of cells from dengue 2 killing – plate reader, single concentration, primary screen (AID 651640);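 also: 0% = median of neutral control wells and 100% = median of positive control wells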
Details: DENV2-infected cells, cytopathic effect rescue, at 9.99 µM, active compounds read high

| SMILES | CPE inhibition |
| --- | --- |
| COc1cc(F)c(C2=CC(=O)CC(C)(C)C2)cc1F | active: 26.9% |
| CCOC(=O)[C@]12CCC=C1N(CCC1=CCCCC1)C(=O)[C@H](CC(=O)NCc1ccc(C)o1)C2 | inconclusive: 58.8% |
| C[C@H](O)C#Cc1ccc2c(c1)O[C@@H](CN(C)C(=O)CC1CC1)[C@H](C)CN([C@@H](C)CO)S2(=O)=O | inactive: 0.611% |
| CC1CCc2nc(NC(=O)C3COc4ccccc4O3)sc2C1 (configuration not stated) | inconclusive: 26.1% |
| Cc1noc(C)c1NC(=O)NC[C@@H]1CC[C@@H]2[C@@H](CN2Cc2cccc(-c3ccccn3)c2)O1 | inconclusive: 43.1% |
| CCc1ccc(-c2n[nH]nc2C2=CC(=O)C[C@H](c3ccc(F)cc3)C2)cc1 | inconclusive: 22.2% |
| COC(=O)c1c(NC(=O)c2cccc(S(=O)(=O)N3CCN(C)CC3)c2)sc(C)c1C | inconclusive: 28.7% |
| COc1cccc(NC(=O)N(C)C[C@@H]2Oc3cc(-c4cccc(C(=O)N(C)C)c4)ccc3S(=O)(=O)N([C@H](C)CO)C[C@H]2C)c1 | inconclusive: 19% |
| COc1ccc2c3c(n(C)c2c1)[C@H](CO)N(C(=O)CN1CCOCC1)CC31CCN(C(=O)Nc2cccc(F)c2)CC1 | active: 32.6% |
| C[C@H]1CCCCO[C@@H](CN(C)Cc2ccc(C(=O)O)cc2)[C@@H](C)CN([C@@H](C)CO)C(=O)c2cc(NS(=O)(=O)c3ccccc3)ccc2O1 | inconclusive: 56.3% |
| Cc1ccccc1S(=O)(=O)N1C[C@@H](O)COC[C@H]2O[C@H](CC(=O)N3CCC(Cc4ccccc4)CC3)CC[C@@H]21 | active: 67.7% |
| CO[C@H]1CN(C)C(=O)c2cc(NC(=O)C3CCCCC3)ccc2OC[C@@H](C)N(C(=O)c2ccccc2)C[C@@H]1C | inactive: -2.76% |
| O=C(C[C@@H]1CC[C@H]2[C@@H](COC[C@@H](O)CN2CC2CCOCC2)O1)NCC1CC1 | inconclusive: 46% |
| COc1cccc(C(O)c2nc(-c3cncnc3)cs2)c1 (configuration not stated) | inconclusive: 27.3% |
| Cc1ccccc1-c1csc(C(C)(O)c2ccccc2)n1 (configuration not stated) | active: 31.3% |
| COc1ccc(C(=O)NCc2ncccc2C)cc1OC1CCN(C(C)=O)CC1 | inconclusive: 30.3% |
| Cc1ccc(S(=O)(=O)N(C)C[C@@H]2OCCCC[C@@H](C)Oc3ccc(NS(C)(=O)=O)cc3C(=O)N([C@@H](C)CO)C[C@H]2C)cc1 | active: 36% |
| COc1ccc(OC)c(CN2CCSCC2)c1 | inconclusive: 45.2% |
| CCCCC(=O)N(C)c1c(C)nc2ccc(C(=O)N(C)Cc3ccco3)cn12 | inconclusive: 49.1% |
| COCCOC(=O)N1C(=O)[C@@]2(c3cc(C#CCC(C(=O)OC)C(=O)OC)ccc31)[C@H](C(=O)N1CCN(c3ncccn3)CC1)[C@H]1C(=O)O[C@H](c3ccccc3)[C@H](c3ccccc3)N1[C@@H]2c1ccc(O)cc1 | inconclusive: 37% |
| COc1cccc(C#Cc2ccc3c(c2)O[C@@H](CN(C)C(C)=O)[C@H](C)CN([C@@H](C)CO)S3(=O)=O)c1 | inconclusive: 6.56% |
| O=C1NC(=O)C(Cc2ccccc2)(c2ccccc2)N1 (configuration not stated) | inactive: 3.6% |
| Nc1nccnc1C(=O)OCc1nc2sc3c(c2c(=O)[nH]1)CCCC3 | inconclusive: 22.7% |
| Cc1cc(N2CCN(C)CC2)nc2ccc(NC(=S)N3CCN(c4cccc(Cl)c4)CC3)cc12 | inactive: 17.8% |

| SMILES | CPE inhibition |
| --- | --- |
| C[C@H](CO)N1C[C@H](C)[C@H](CN(C)Cc2ccc(-c3ccccc3)cc2)Oc2ccc(NC(=O)Nc3cccc4ccccc34)cc2C1=O | active: 25.1% |
| CC(=O)Nc1ccc2nc(NC(=O)COc3ccccc3)sc2c1 | inactive: -3.62% |
| C[C@H]1CN([C@@H](C)CO)C(=O)c2cc(NC(=O)Nc3ccc(C(F)(F)F)cc3)ccc2O[C@H]1CN(C)Cc1ccc(Cl)c(Cl)c1 | inconclusive: 23.8% |
| CC(C)C[C@@H](CN(N=O)[C@@H](Cc1ccccc1)CN(C)N=O)N(CCc1ccccc1)N=O | inactive: -8.43% |
| CCOC(=O)C1=C(C)N(CCCCCC(=O)O)C(=O)NC1c1ccc([N+](=O)[O-])cc1 (configuration not stated) | inconclusive: 58.7% |
| COc1ccc(Cl)cc1NC(=O)CN(C)C(=O)C1COc2ccccc2O1 (configuration not stated) | active: 73.5% |
| COc1cc2c(cc1OC)C(C)N(C(=O)Cn1ncc3c1-c1cc(C)ccc1OC3)CC2 (configuration not stated) | active: 70% |
| C[C@H](CO)N1C[C@H](C)[C@H](CN(C)C(=O)CN(C)C)Oc2cc(C#C[C@@H](C)O)ccc2S1(=O)=O | inactive: 8.33% |
| Cc1cc(C(=O)N/N=C/c2c[nH]c3ccccc23)cs1 | inactive: 10.2% |
| CCOc1ccc2c(c1)C(=O)C(=O)N2CC1COc2ccccc2O1 (configuration not stated) | inconclusive: 27.1% |
| CCN(CC(=O)NCc1cccs1)C(=O)c1cc(S(=O)(=O)NCc2ccccc2)ccc1C | inconclusive: 22.3% |
| CNC(=O)C[C@H]1CC[C@@H]2[C@H](COc3ccc(NC(=O)c4cscn4)cc3C(=O)N2C)O1 | active: 29.3% |
| N#Cc1ccc(-c2ccc3c(c2)[C@H]2[C@H](CCN2S(=O)(=O)c2ccccc2F)[C@@H](CO)N3)cc1 | inactive: -9.53% |
| CCc1ccccc1NC(=O)CN1CCN(C(=O)CNC(=O)c2ccc(N3CCCC3=O)cc2)CC1 | inconclusive: 22.6% |
| CN(Cc1ccc(Cl)cc1Cl)C(=O)c1cccc(S(=O)(=O)NCc2ccccc2)c1 | inconclusive: 74.6% |
| C[C@@H]1CN([C@@H](C)CO)C(=O)Cc2cc(NS(=O)(=O)c3cn(C)cn3)ccc2O[C@H]1CN(C)C(=O)Nc1cccc2ccccc12 | inactive: 10.2% |
| Oc1cc2c(cc1O)C1c3ccc(O)c(O)c3OCC1(O)C2 (configuration not stated) | inactive: 10.8% |
| OCC1COC(c2ccccc2)=N1 (configuration not stated) | inconclusive: 35.5% |
| CCCNC(=O)C[C@@H]1CC[C@H]2[C@@H](COC[C@H](O)CN2C(=O)Nc2ccc(Cl)c(Cl)c2)O1 | inactive: 2.89% |
| CS(=O)(=O)Nc1ccc2c(c1)[C@@H]1C[C@H](CC(=O)NCc3ccccn3)O[C@H](CO)[C@@H]1O2 | inactive: 2.57% |
| Cc1c(C(C)(C)O)[nH]c2ccc(C(F)(F)F)cc12 | inconclusive: 51.5% |
| C[C@H](CO)N1C[C@H](C)[C@@H](CN(C)Cc2ccc(C(=O)O)cc2)Oc2ncc(-c3ccccc3)cc2C1=O | inconclusive: 21.9% |
| NC1(C(=O)O)CC1 | inconclusive: 22.1% |
| O=C(CCN1C(=O)c2cccc([N+](=O)[O-])c2C1=O)NC1CCCCCC1 | inconclusive: 59.6% |

Among those listed so far, these have a COOH group:

| SMILES | CPE inhibition |
| --- | --- |
| C[C@H]1CCCCO[C@@H](CN(C)Cc2ccc(C(=O)O)cc2)[C@@H](C)CN([C@@H](C)CO)C(=O)c2cc(NS(=O)(=O)c3ccccc3)ccc2O1 | inconclusive: 56.3% |
| CCOC(=O)C1=C(C)N(CCCCCC(=O)O)C(=O)NC1c1ccc([N+](=O)[O-])cc1 (configuration not stated) | inconclusive: 58.7% |
| C[C@H](CO)N1C[C@H](C)[C@@H](CN(C)Cc2ccc(C(=O)O)cc2)Oc2ncc(-c3ccccc3)cc2C1=O | inconclusive: 21.9% |
| NC1(C(=O)O)CC1 | inconclusive: 22.1% |

(next part)

| SMILES | CPE inhibition |
| --- | --- |
| O=C(Cn1nc(-c2ccccc2)ccc1=O)N1CCCCC1 | inconclusive: 51.5% |
| CN(C)CC(=O)Nc1ccc2c(c1)[C@@H]1C[C@H](CC(=O)N3CCOCC3)O[C@H](CO)[C@@H]1O2 | inactive: 13.4% |
| Cc1noc(C)c1S(=O)(=O)N(C)C[C@@H]1OCCCC[C@@H](C)Oc2ccc(NS(=O)(=O)c3ccc(Cl)cc3)cc2C(=O)N([C@@H](C)CO)C[C@H]1C | active: 35.7% |
| NNC(=O)c1cccc(S(=O)(=O)Nc2cccc(C(F)(F)F)c2)c1 | inactive: 6.49% |
| COc1ccccc1C#Cc1ccc([C@H]2[C@H](C#N)N(C(=O)C3CCCC3)[C@H]2CO)cc1 | inactive: 10.3% |
| O=C(C[C@H]1CC[C@H]2NC[C@H](O)COC[C@@H]2O1)Nc1ccccc1 | inactive: 13.5% |
| COc1ccc(NC(=O)Nc2ccc3c(c2)CC(=O)N([C@H](C)CO)C[C@@H](C)[C@@H](CN(C)Cc2ccncc2)O3)cc1 | inconclusive: 35.6% |
| CC(=O)Nc1ccc(S(=O)(=O)N2CCN(CCc3ccccc3)CC2)cc1 | inconclusive: 20% |
| Cc1ccc(-n2nnc(-c3nccs3)n2)cc1 | inactive: -1.14% |
| O=C(Nc1ccn(CCCNCC2CCCO2)c(=O)n1)OCc1ccccc1 (configuration not stated) | inconclusive: 24.3% |
| CCCCOC(=O)CSCC(=O)N1N=C(c2cccs2)CC1c1ccc(F)cc1 (configuration not stated) | inconclusive: 30.1% |
| CCCCNC(=O)C1(C)CCN1C(=O)c1cc(-c2cccs2)oc1C (configuration not stated) | active: 32.8% |
| CCC(C)c1ccccc1N1CC(C(=O)Nc2cccc(S(=O)(=O)N3CCOCC3)c2)CC1=O (configuration not stated) | inconclusive: 50.8% |
| O=C(C1CCCCC1)N1CC(=O)N2[C@H](CO)[C@@H](c3ccc(C#CCc4ccccc4)cc3)[C@H]2C1 | inactive: 19.1% |
| C[C@@H]1CN([C@@H](C)CO)C(=O)c2cccc(NC(=O)C3CCCCC3)c2O[C@@H]1CN(C)C(=O)NC1CCCCC1 | active: 32.6% |
| Cc1ccc(NC(=O)c2cc(-c3ccccc3)n[nH]2)cc1 | inconclusive: 39.1% |
| C[C@H]1CN([C@@H](C)CO)C(=O)c2cc(-c3cccc(C#N)c3)cnc2O[C@@H]1CN(C)Cc1ccccc1 | inconclusive: 25.4% |
| C[C@@H]1CN([C@@H](C)CO)C(=O)c2cc(NC(=O)c3ccncc3)ccc2O[C@@H](C)CCCCO[C@H]1CN(C)S(C)(=O)=O | inactive: 8.83% |
| N#C[C@@H]1[C@H](c2ccccc2-c2cccc(F)c2)[C@H](CO)N1C(=O)C1CCCC1 | active: 36.7% |
| O=C(Nc1c(-c2ccccc2)[nH][nH]c1=O)c1ccc2c(c1)OCO2 | inconclusive: 27.3% |
| Cc1c(C)n(-c2ccccc2)c2ncnc(NCCN(C)C)c12 | inconclusive: 30.3% |
| S=C(NCCc1ccccc1)N1CCCC1 | inconclusive: 49.9% |
| C[C@@H]1CCCCO[C@@H](CN(C)C(=O)Nc2cccc3ccccc23)[C@H](C)CN([C@H](C)CO)C(=O)c2cc(NC(=O)CCC(F)(F)F)ccc2O1 | active: 99.1% |
| Cc1ccccc1CC(=O)N1CCN(S(=O)(=O)c2cccs2)CC1 | inconclusive: 31.8% |
